## Library screen at single concentrations

Protein sequences, listed by entry. Tags and fused reporters are not part of them. Residues count along the entry.
UniProt P9WFT3, whole entry: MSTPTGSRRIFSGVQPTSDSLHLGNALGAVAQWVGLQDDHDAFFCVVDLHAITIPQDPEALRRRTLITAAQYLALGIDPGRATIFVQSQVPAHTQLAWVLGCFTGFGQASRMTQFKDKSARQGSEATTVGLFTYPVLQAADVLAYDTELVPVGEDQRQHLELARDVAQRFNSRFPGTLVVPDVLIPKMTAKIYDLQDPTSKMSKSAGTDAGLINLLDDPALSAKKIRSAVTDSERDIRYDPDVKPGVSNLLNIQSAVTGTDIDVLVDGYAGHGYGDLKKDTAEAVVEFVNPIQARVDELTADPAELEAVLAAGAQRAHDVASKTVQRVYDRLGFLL
UniProt Q8IDJ8, 1-583: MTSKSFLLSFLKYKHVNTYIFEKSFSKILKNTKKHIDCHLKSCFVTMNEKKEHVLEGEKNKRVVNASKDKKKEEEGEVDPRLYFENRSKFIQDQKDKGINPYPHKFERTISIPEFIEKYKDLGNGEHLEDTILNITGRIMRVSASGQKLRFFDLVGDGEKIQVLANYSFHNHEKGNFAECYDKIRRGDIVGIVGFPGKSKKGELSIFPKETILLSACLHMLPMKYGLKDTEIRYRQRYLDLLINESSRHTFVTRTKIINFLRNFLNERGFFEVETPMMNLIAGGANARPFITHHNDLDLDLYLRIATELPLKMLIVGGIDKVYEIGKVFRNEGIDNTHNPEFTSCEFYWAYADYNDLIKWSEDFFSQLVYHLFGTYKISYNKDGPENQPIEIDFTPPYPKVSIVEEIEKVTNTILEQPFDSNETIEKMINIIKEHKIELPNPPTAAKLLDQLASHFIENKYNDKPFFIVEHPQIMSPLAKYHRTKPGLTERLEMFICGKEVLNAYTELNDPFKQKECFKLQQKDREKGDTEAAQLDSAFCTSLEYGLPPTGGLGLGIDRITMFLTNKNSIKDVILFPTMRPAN
UniProt P9WNZ1, whole entry: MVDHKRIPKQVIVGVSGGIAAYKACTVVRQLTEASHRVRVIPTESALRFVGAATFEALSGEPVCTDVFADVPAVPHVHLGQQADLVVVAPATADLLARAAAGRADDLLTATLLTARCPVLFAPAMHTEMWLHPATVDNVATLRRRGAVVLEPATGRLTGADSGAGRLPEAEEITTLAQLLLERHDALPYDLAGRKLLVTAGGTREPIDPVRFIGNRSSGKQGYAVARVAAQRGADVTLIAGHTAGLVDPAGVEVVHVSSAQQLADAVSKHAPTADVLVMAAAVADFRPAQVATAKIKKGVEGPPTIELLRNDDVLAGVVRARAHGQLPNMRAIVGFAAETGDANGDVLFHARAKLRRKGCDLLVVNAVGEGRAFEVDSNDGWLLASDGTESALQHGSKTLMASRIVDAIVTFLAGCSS
UniProt P9WPC5, whole entry: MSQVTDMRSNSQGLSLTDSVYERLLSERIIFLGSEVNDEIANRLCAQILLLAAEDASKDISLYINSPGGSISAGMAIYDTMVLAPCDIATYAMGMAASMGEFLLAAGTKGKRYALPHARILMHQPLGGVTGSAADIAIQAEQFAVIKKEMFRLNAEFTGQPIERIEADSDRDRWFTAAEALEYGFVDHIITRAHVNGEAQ
UniProt P9WPC3, whole entry partner: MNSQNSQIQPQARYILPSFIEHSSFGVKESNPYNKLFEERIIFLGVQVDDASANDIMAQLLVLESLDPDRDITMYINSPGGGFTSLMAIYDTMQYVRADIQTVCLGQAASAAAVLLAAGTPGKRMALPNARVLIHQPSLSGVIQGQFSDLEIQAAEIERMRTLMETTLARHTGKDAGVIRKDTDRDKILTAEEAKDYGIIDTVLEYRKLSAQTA
UniProt Q4DA54, 1-478: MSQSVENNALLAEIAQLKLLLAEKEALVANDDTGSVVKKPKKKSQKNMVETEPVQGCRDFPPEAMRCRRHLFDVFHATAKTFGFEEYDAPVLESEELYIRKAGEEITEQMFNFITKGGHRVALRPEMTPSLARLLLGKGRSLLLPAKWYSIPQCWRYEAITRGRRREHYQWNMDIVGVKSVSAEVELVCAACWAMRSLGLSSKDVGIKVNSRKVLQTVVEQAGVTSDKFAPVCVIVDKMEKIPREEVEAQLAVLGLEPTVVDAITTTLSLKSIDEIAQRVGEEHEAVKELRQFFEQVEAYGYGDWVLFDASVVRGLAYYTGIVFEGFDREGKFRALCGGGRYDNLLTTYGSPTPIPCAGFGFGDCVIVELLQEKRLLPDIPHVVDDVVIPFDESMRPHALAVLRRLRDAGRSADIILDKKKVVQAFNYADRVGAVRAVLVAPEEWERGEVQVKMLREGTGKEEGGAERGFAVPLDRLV

Measurements from “University of Dundee, Small-Polar-MMV Screening Library” (2021), ChEMBL document CHEMBL3988442.

Values are the deposited “Percent Effect”, in %. The controls that fix the scale are not given in the record; negative values are as filed. This is an unselected part of the compounds tested. A dash means the value is not listed here; it may have been measured.

A: 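Tryptophan-tRNA ligase, Mycobacterium tuberculosis (UniProt P9WFT3). Enzyme assay of tryptophanyl-tRNA synthetase; the read-out is not stated. Compounds at 10 µM. Direction is not recorded; retested compounds ran higher, which suggests that high means inhibition. About 65,000 compounds were tested under these conditions; 0.098% (about 64) showed 50% or more at least once.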
B: 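Lysine-tRNA ligase, Plasmodium falciparum 3D7 (UniProt Q8IDJ8). Enzyme assay of the cytosolic lysyl-tRNA synthetase in 384-well plates, read by luminescence. Concentration: 30 µM. Higher reads as stronger inhibition, judged from the few compounds that gave an IC50. Size under these conditions: about 69,000 compounds, about 49 of them at 50% or above in at least one test.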
C: 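Enzyme assay of CoaBC with a phosphate dye (Biomol Green) read at 650 nm. Target: Coenzyme A biosynthesis protein CoaBC, Mycobacterium tuberculosis (UniProt P9WNZ1). Compounds at 30 µM. Direction is inferred from only a few compounds that gave an IC50; most scored high, so higher reads as stronger inhibition. Most strong results did not repeat in a second test. Of about 67,000 compounds tested this way, about 40 (0.06%) reached 50% or more in at least one test.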
D: 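ClpP1P2, Mycobacterium tuberculosis (UniProt P9WPC5 and UniProt P9WPC3). Protease assay of ClpP1P2, read by the AMC dye that it sets free. Compounds at 50 µM. Higher reads as stronger inhibition, judged from the few compounds that gave an IC50. Most other retested compounds had strongly negative values. Size under these conditions: about 69,000 compounds, about 10 of them at 50% or above in at least one test.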
E: 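Histidine-tRNA ligase, Trypanosoma cruzi CL Brener (UniProt Q4DA54). Enzyme assay of histidyl-tRNA synthetase; the read-out is not stated. Compounds at 30 µM. Higher reads as stronger inhibition (inferred: compounds with an IC50 in retests scored well above the rest). Of about 69,000 compounds tested this way, about 31 (0.045%) reached 50% or more in at least one test.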

Compound | A | B | C | D | E
O=C1CCC(=O)N1CCN1CCN(c2cc(F)ccc2F)CC1 | -5.685 | 2.236 | 2.848 | -6.709 | 2.463
O=C(NCc1cccs1)[C@H]1CO[C@H]2CCN(C3CCCC3)C[C@H]2C1 | - | 4.065 | 0.4938 | 1.493 | 5.291
CCCc1nnc(N(C)CC2CCCN(CC)C2)o1 (stereo unspecified) | 6.061 | -4.217 | -7.78 | 11.97 | 3.867
CN(C)CCN1CCCC12CCCN(Cc1ccco1)C2 (stereo unspecified) | 9.655 | -6.741 | -34.46 | 16.3 | -1.075
CO[C@H]1CN(C(C)C)C[C@@H]1NC(=O)c1cc(COc2ccccc2)[nH]n1 | -2.716 | 0.5369 | 3.909 | -5.394 | 12.04
CC(NS(C)(=O)=O)C(=O)N(C)Cc1csc(-c2cccs2)n1 (stereo unspecified) | 3.389 | -0.3394 | 1.485 | -12.45 | 3.614
CCN1CCC(NC(=O)NCC(O)c2ccc(Cl)c(F)c2)CC1 (stereo unspecified) | -1.519 | 8.758 | -4.28 | 2.106 | 10
Cc1nc(C)n(C2CCCN(C(=O)c3csc(C)n3)C2)n1 (stereo unspecified) | -4.52 | 1.404 | 3.143 | -16.46 | 4.36
Cc1cc(C)c(CNC(=O)C(C)Oc2ccccc2F)c(=O)[nH]1 (stereo unspecified) | 2.157 | 3.425 | -3.817 | -6.734 | 8.434
CC(C)CN1CCNC(=O)C12CCN(S(=O)(=O)c1ccc(F)cc1)CC2 | 5.416 | 2.478 | -2.036 | -7.288 | 11.65
CSCCC1c2nc[nH]c2CCN1Cc1ccccc1C(F)(F)F (stereo unspecified) | -0.2129 | 3.503 | 6.273 | -15.94 | 11.49
Cc1noc(C)c1CN(C)C(=O)NC1CCN(c2ncccn2)CC1 | 5.271 | 1.524 | 6.995 | 6.284 | -1.527
O=C(NC1CCN(CC2CC2)C1)c1ccc(C(=O)c2cc[nH]c2)cc1 (stereo unspecified) | -0.4421 | 1.788 | -10.74 | 11.49 | -4.046
CC(C)CNC(=O)C1=NOC2(CCN(Cc3cccc(C#N)c3)C2)C1 (stereo unspecified) | - | 2.316 | 3.415 | 11.44 | -2.222
COc1coc(CN2CCCC3(CCC(=O)N(C4CC4)C3)C2)cc1=O (stereo unspecified) | 1.235 | 3.71 | 9.246 | -2.358 | 9.091
CC(=O)N1CCCN(C(=O)c2ccn(-c3cccc(Cl)c3)n2)CC1 | -0.8793 | 3.837 | 3.373 | 5.741 | 3.053
O=C1CCOC[C@]2(CN(Cc3ccccc3)C[C@H]2c2cccnc2)N1 | 11.44 | -0.2634 | 6.393 | 2.772 | 4.857
COC1CCN(c2ccc(NC(=O)C3CC3)cc2C(F)(F)F)CC1 | -2.708 | 3.088 | 8.402 | 2.862 | 4.255
CN(C)c1ccc(NC(=O)NCc2cccs2)cn1 | 0.2865 | 0.8115 | 1.594 | -4.213 | 5.263
Cc1ncc2c(n1)CCN(CCCc1nc3ccccc3o1)C2 | -5.062 | 1.012 | 5.909 | -25.44 | 8.069
CCC(Nc1cccc(OC)c1)C(=O)N(CCOC)Cc1cnn(C)c1 (stereo unspecified) | -3.722 | -0.8501 | 18.31 | -1.488 | 0.5236
COc1cccc(-c2noc(C3CCN(Cc4ccncc4)C3)n2)c1 (stereo unspecified) | - | 3.771 | 4.458 | 1.223 | 7.91
Cc1noc(C)c1CN1C[C@@H]2CN(C(=O)c3cscn3)C[C@@H]2C1 | -3.312 | 3.669 | 0.6342 | -0.2528 | 8.602
CO[C@H]1[C@@H]2CC[C@H]1CN(c1nc(C)nc3ccsc13)C2 | 4.238 | -4.445 | 1.815 | 10.56 | -6.522
CNC(=O)CN1CCCC12CCN(C(=O)c1ccc(F)cc1)CC2 | -1.298 | 0.5913 | -0.9674 | 0.5492 | 2.256
Cc1cc(C)c(C(=O)N2CCOC(CCN(C)C)C2)o1 (stereo unspecified) | 1.536 | 2.95 | 0.6889 | -6.749 | 1.026
O=C(COCCc1ccccc1)N1CCCC(n2cncn2)C1 (stereo unspecified) | -1.271 | 1.179 | 1.746 | -34.54 | 9.012
COc1ccccc1C1CNC(=O)c2nc(-c3c(C)n[nH]c3C)[nH]c2C1 (stereo unspecified) | 3.402 | 10.37 | -3.968 | -7.174 | 3.061
C[C@@H](O)CNC(=O)c1nc(CC(=O)Nc2cccc(C(F)(F)F)c2)no1 | 0.0809 | 2.079 | -3.385 | 0.375 | -0.5181
CS(=O)(=O)NC[C@H]1Cn2c(-c3ccccc3)cnc2CO1 | -0.07588 | 4.842 | 9.934 | 0.1633 | 3.261